The test concerns the target T1, Recombinant Human IL13 Rα2/Fc Chimera (R&D) (human) (UniProt Q14627).
T1 sequence (looked up): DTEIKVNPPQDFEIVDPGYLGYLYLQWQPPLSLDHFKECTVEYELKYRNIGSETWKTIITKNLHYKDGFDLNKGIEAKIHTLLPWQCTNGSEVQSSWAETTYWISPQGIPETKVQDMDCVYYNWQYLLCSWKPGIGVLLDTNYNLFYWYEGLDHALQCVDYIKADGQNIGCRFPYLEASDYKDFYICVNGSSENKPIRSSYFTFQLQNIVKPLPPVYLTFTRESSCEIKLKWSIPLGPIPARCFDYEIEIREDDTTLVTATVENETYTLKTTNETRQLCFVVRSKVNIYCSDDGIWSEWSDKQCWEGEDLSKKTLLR
The test can be described thus: SPR (BIACORE2000), chimera captured on Ni-NTA chip.

No constants are given. Whether binding was seen depends on the method and setting. Tags and fused reporters may be left off the sequences shown.

B1: F997-13-1 antibody (antibody, IgG1, V domains shown)
VH: EVKLQQSGGGLVQPGRSMKLSCAASGFTFSNYGMAWVRQAPKKGLEWVAYISYDGGSTYYRDSVKGRFTISRDNAKSTLYLQMDSLRSEDTATYHCTTPHYGYKYWYFDFWGQGTTVTVSS
VL: DIQMTQSPASLSASLGETVTIECRASEDIYNGLAWYQQKPGKSPQLLIYHANSSHTGVPSRFSGSGSGTQYSLKIDSLQSEDVANYFCQQYYDYPTFGAGTKLELKR
Turning to B1, the binding result was “no binding (tested: RU < 50; antibody 50 µg/ml)”.

For the origin of these results see US20050154192A1 (published 2005).
